Data as given in PubChem BioAssay AID504808 (Drosophila RNAi Screening Center, 2011)
Purpose: 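Chromatin factors that keep E2F targets switched off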 (primary screen). System: Drosophila S2 cells. Knock-down reagent: long dsRNA against Drosophila genes. Measurement: 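Dual luciferase plate measurements; E2F-specific signal taken as firefly over Renilla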. Direction: E2F firefly: higher = more E2F reporter activity; Renilla normaliser: higher = more normaliser reporter signal. Rule for the call: 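a knock-down counted as active when the firefly/Renilla E2F signal rose above 50%, a threshold chosen arbitrarily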.
The screen tested about 21,000 reagents; shown is a random part of those with a known target gene and a result. Over the whole deposit, 18 (0.084%) were called active. 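Raw counts without plate normalisation, one of two replicates; the ratio scores behind the calls were not deposited.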 Entries without a mark were called inactive. A plus sign joins genes that one reagent is predicted to hit. Not given: the amount of reagent, the time to read-out.

predicted target | amplicon | E2F firefly, rep 1 | Renilla normaliser, rep 1
OXA1L (GeneID 39222) | DRSC09672 | 71445 | 3441
Naxe (GeneID 31944) | DRSC18251 | 1.19e5 | 4925
CG11454 (GeneID 33175) | DRSC00310 | 86352 | 3920
RpL21 (GeneID 35453) | DRSC03704 | 73983 | 5417
JMJD4 (GeneID 35089) | DRSC03025 | 80599 | 3707
CG34315 + Orc3 | DRSC07642 | 2993 | 191
CG34282 (GeneID 42248) | DRSC16298 | 1.29e5 | 5864
CG34309 (GeneID 5740636) | DRSC14838 | 1.25e5 | 5705
CG13426 (GeneID 37312) | DRSC06388 | 1.50e5 | 4694
Afg3l2 (GeneID 39922) | DRSC10657 | 78365 | 3955
CG15536 (GeneID 43610) | DRSC15072 | 1.37e5 | 7196
CG31462 (retired record) (GeneID 326143) | DRSC14359 | 1.54e5 | 7337
lectin-33A (GeneID 53516) | DRSC02529 | 1.43e5 | 5331
Ir7b (GeneID 31690) | DRSC18009 | 36514 | 3102
CG6900 (retired record) (GeneID 32868) | DRSC20018 | 1.30e5 | 6228
Ubc4 (GeneID 39133) | DRSC11312 | 74866 | 3715
CG12171 (GeneID 40690) | DRSC12200 | 1.40e5 | 6342
CG4951 (GeneID 43355) | DRSC15682 | 1482 | 952
Acsx3 (GeneID 42354) | DRSC14309 | 67924 | 3424
CAH8 (GeneID 42625) | DRSC15784 | 1.45e5 | 7214
CG34305 (GeneID 5740825) | DRSC11995 | 81000 | 3765
Frmd5 (GeneID 34398) | DRSC02802 | 1.59e5 | 5273
FANCI (GeneID 35895) | DRSC06416 | 1.51e5 | 5514
Sema1b (GeneID 37007) | DRSC07550 | 76520 | 3544
CG11882 (GeneID 43446) | DRSC14425 | 1.34e5 | 6809
msi (GeneID 43087) | DRSC17003 | 87411 | 5361
Sec61alpha (GeneID 33905) | DRSC03256 | 65246 | 3043
ana3 (GeneID 36341) | DRSC06289 | 1.08e5 | 4196
PK2-R1 (GeneID 41639) | DRSC16447 | 95933 | 5619

Limited to “E2F firefly, rep 1”, for 13 of the entries above:
RpL21 (GeneID 35453) [DRSC03704]	73983
JMJD4 (GeneID 35089) [DRSC03025]	80599
CG34315 + Orc3 [DRSC07642]	2993
CG34282 (GeneID 42248) [DRSC16298]	1.29e5
CG34309 (GeneID 5740636) [DRSC14838]	1.25e5
CG13426 (GeneID 37312) [DRSC06388]	1.50e5
Afg3l2 (GeneID 39922) [DRSC10657]	78365
CG15536 (GeneID 43610) [DRSC15072]	1.37e5
CG31462 (retired record) (GeneID 326143) [DRSC14359]	1.54e5
lectin-33A (GeneID 53516) [DRSC02529]	1.43e5
Ir7b (GeneID 31690) [DRSC18009]	36514
CG6900 (retired record) (GeneID 32868) [DRSC20018]	1.30e5
Ubc4 (GeneID 39133) [DRSC11312]	74866

Additional reagents follow.
predicted target | amplicon | E2F firefly, rep 1 | Renilla normaliser, rep 1
SdhA (GeneID 37228) | DRSC07547 | 93333 | 4041
ras (GeneID 43873) | DRSC18825 | 7832 | 788
CG11000 (GeneID 40721) | DRSC12158 | 1.38e5 | 6250
CG12360 (retired record) (GeneID 41603) | DRSC14505 | 99350 | 5492
IFT43 (GeneID 34676) | DRSC02892 | 83682 | 3886
KCNQ (GeneID 36071) | DRSC06121 | 1.42e5 | 5240
KCNQ (GeneID 36071) | DRSC06230 | 1.48e5 | 5077
Pp1-87B (GeneID 49260) | DRSC16794 | 59909 | 3814
smid (GeneID 38824) | DRSC11398 | 99603 | 3936
Art3 (GeneID 41837) | DRSC16065 | 74127 | 3626
CG17211 (GeneID 34639) | DRSC02587 | 92832 | 3958
Pdss2 (GeneID 40323) | DRSC11625 | 82926 | 3285
temp (GeneID 31212) | DRSC18271 | 1900 | 944
CG6108 (retired record) (GeneID 34733) | DRSC02929 | 1.01e5 | 4713
CG5114 (GeneID 39624) | DRSC10482 | 74740 | 3730
CG9395 (GeneID 34742) | DRSC03218 | 1.02e5 | 4636
EndoU (GeneID 41931) | DRSC15472 | 85591 | 3911
Cpr51A (GeneID 36613) | DRSC05969 | 1.06e5 | 5094
Flad1 (GeneID 32240) | DRSC19898 | 8153 | 816
brm (GeneID 39744) | DRSC11330 | 1.40e5 | 9741
Snx17 (GeneID 34354) | DRSC02884 | 85917 | 3401
CG14591 (GeneID 35531) | DRSC04868 | 1.08e5 | 4593
PIG-O (GeneID 37118) | DRSC06123 | 64305 | 3383
Listericin (GeneID 36183) | DRSC07334 | 1.01e5 | 4067
CG14400 (GeneID 35354) | DRSC02384 | 99590 | 4242
prd1 (GeneID 41425) | DRSC15227 | 1.30e5 | 5893
PPP1R15 (GeneID 37820) | DRSC04422 | 54675 | 3378
Ilk (GeneID 53573) | DRSC11868 | 48412 | 3466
Or67d (GeneID 39191) | DRSC10158 | 77214 | 2391
omd (GeneID 41674) | DRSC16507 | 1.03e5 | 236
CG15404 (GeneID 33537) | DRSC00418 | 1.57e5 | 5012
Vps33B (GeneID 43077) | DRSC15722 | 1971 | 792
CheB74a (GeneID 3772073) | DRSC09503 | 1.24e5 | 3632
CG12773 (GeneID 31082) | DRSC18580 | 1875 | 916
Tgt (GeneID 33307) | DRSC00672 | 84690 | 3475
Srg1 (GeneID 42969) | DRSC14640 | 1.10e5 | 5448
CG4021 (GeneID 37484) | DRSC04439 | 90746 | 3735
CG7985 (GeneID 42178) | DRSC14128 | 62219 | 3536
lectin-37Db (GeneID 3346221) | DRSC03279 | 89873 | 3870
Dronc (GeneID 39173) | DRSC11231 | 96979 | 4747
CG34256 (GeneID 5740297) | DRSC09582 | 73869 | 2701
CG10132 (GeneID 35239) | DRSC02013 | 77106 | 3817
lok (GeneID 35288) | DRSC03567 | 96884 | 3318
Zpr1 (GeneID 31851) | DRSC18432 | 8459 | 860
CG34384 (GeneID 5740362) | DRSC12644 | 77891 | 3487
CG34384 (GeneID 5740362) | DRSC14855 | 1.35e5 | 6764
CG34384 (GeneID 5740362) | DRSC15444 | 1.43e5 | 6276
CG34384 (GeneID 5740362) | DRSC16575 | 1.54e5 | 6822
alpha-Est7 (GeneID 40901) | DRSC12619 | 57176 | 3177
MED10 (GeneID 39777) | DRSC10474 | 1.10e5 | 7272
CG15711 (GeneID 36834) | DRSC06582 | 1.41e5 | 5248
Wsck (GeneID 318600) | DRSC13682 | 94051 | 3266
tbrd-2 (GeneID 37207) | DRSC07020 | 1.24e5 | 4706
Jarid2 (GeneID 39103) | DRSC10372 | 79347 | 3583
Obp28a (GeneID 34031) | DRSC03394 | 1.45e5 | 4571
